Measured values as given in patent US20140296501.

Target: EGFR (ERBB1) (UniProt P00533)
Experiment: binding assay
Settings: single-stranded DNA

Sequence: ATCGAGGTTGTGGGTCGGATTGTTGGATTCTTTAAGTTGGGAACACCAACCGAGAACG [EGFR aptamer SEQ ID NO: 3 (same as SEQ ID NO: 1)]
- binding result (N = BndU [n positions 2,8,9,11,15,20,21,23,24,28,29,31,32,33,37,38 = modified dU], binds only EGFR not bound by cetuximab or panitumumab, variant of EGFR aptamer SEQ ID NO: 4): binds

Sequence: ATCGAGGTTGTGGGTCGGATTGTTGGATTCTTTAAGTTGG [EGFR aptamer SEQ ID NO: 6 (40-mer selected region)]
- binding result (N = BndU [n positions 2,8,9,11,15,20,21,23,24,28,29,31,32,33,37,38 = modified dU], 40-mer selected region retains binding affinity, variant of EGFR aptamer SEQ ID NO: 4): binds

Sequence: GAGTTGTATGGGGTCGGATTGTTGGATTCTTTAAGTTCGG [EGFR aptamer SEQ ID NO: 7]
- binding result (N = BndU [n positions 4,5,7,9,14,19,20,22,23,27,28,30,31,32,36,37 = modified dU], same SELEX pool as SEQ ID NO: 4): binds
